This is an account of results in article PMC10418956.

The experiment deals with T1, ATG5-TAP (Arabidopsis thaliana) (UniProt Q9FFI2).
T1 sequence: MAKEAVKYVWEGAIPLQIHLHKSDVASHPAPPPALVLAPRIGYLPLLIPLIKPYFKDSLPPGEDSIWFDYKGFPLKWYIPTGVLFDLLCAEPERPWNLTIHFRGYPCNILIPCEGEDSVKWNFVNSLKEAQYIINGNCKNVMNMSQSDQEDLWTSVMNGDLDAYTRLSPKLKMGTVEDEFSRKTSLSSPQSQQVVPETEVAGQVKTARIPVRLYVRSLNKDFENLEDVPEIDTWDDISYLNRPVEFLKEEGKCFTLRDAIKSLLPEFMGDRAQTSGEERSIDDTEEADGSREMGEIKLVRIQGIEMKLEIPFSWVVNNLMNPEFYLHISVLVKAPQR
In words: affinity purification with mass spectrometry; tandem affinity purification (IgG Sepharose, PreScission protease, Ni Sepharose) of TAP-tagged bait expressed under the 2x35S promoter in Col-0, from protein extracts of fully expanded rosette leaves at the bolting stage, long day conditions; LC-MS/MS; hits enriched over the GFP-TAP control (fold change >= 1.5, p <= 0.05).

These are yes or no findings as the source states them, for the method shown. Binding seen in cells or lysates may run through a third protein. Here binding means that the protein was enriched with, or labelled near, the bait; the list need not be complete.

B1: SEC24C (protein, UniProt Q9M081 1-1080)
chain: MVAPVPPGAPRPNSQQNSGPPNFYPGSQGNSNALADNMQNLSLNRPPPMMPGSGPRPPPPFGQSPQPFPQQSPSYGAPQRGPSPMSRPGPPAGMARPGGPPPVSQPAGFQSNVPLNRPTGPPSRQPSFGSRPSMPGGPVAQPAASSSGFPAFGPSGSVAAGPPPGSRPMAFGSPPPVGSGMSMPPSGMIGGPVSNGHQMVGSGGFPRGTQFPGAAVTTPQAPYVRPPSAPYARTPPQPLGSHSLSGNPPLTPFTAPSMPPPATFPGAPHGRPAVSGLPYGPPSAQVAPPLGFPGQMQPPRYGMGPLPNQSMTNIPTAMGQPGATVPGPSRIDPNQIPRPGSSSSPTVFETRQSNQANPPPPATSDYVVRDTGNCSPRYMRCTINQIPCTVDLLSTSGMQLALMVQPLALSHPSEEPIQVVDFGEGGPVRCSRCKGYINPFMKFIDQGRKFICNFCGYTDETPRDYHCNLGPDGRRRDVDERPELCRGTVEFVATKEYMVRDPMPAVYFFLIDVSMNAIQTGATAAACNAIQQVLSDLPEGPRTFVGIATFDSTIHFYNLKRALQQPLMLIVPDVQDVYTPLETDVVVQLSECRQHLELLLDSIPTMFQESKIPESAFGAAVKAAFLAMKSKGGKLMVFQSILCSVGVGALSSREAEGRANMSAGEKEAHKLLQPADKTLKTMAIEFAEYQVCVDIFITTQAYVDMASISVIPRTTGGQVYCYYPFSALSDPPKLYNDLKWNITRPQGFEAVMRVRCSQGIQVQEYSGNFCKRIPTDIDLPAHDDKLQDGAECAFQCALLYTTIYGERRIRVTTLSLSCTNMLSNLFRAADLDSQFACMLKQAANEIPSKALPLVKEQATNSCINALYAYRKFCATVTSSGQLILPEALKLFPLYTLALTKSVGLRTDGRIDDRSFWINYVSSLSTPLAIPLVYPRMISVHDLDVKDTEGSVLPPPIPLSSEHISNEGVYFLENGEDGLLFVGESVDSDILQKLFAVSSAAEIPNQFVLQQYDNQLSKKFNDAVNEIRRQRCSYLRIKLCKKGEPSGMLFLSYMVEDRTASGPSYVEFLVQVHRQIQLKMN
Take B1: the binding entry is “binds”.

B2: 20S proteasome subunit alpha E2 (protein, UniProt Q42134 1-237)
chain: MFLTRTEYDRGVNTFSPEGRLFQVEYAIEAIKLGSTAIGVKTKEGVVLAVEKRITSPLLEPSSVEKIMEIDDHIGCAMSGLIADARTLVEHARVETQNHRFSYGEPMTVESTTQALCDLALRFGEGEEESMSRPFGVSLLIAGHDENGPSLYYTDPSGTFWQCNAKAIGSGSEGADSSLQEQFNKDITLQEAETIAVSILKQVMEEKVTPNNVDIAKVAPAYHLYTPQEVEAVISRL
For the molecule B2, the binding entry is reported as “binds”.
